These are yes or no findings as the source states them, for the method shown. In cells and extracts the contact can be indirect. Here binding means that the protein was enriched with, or labelled near, the bait; the list need not be complete.
Target: S2Lb-GFP (SWD2-like b, GFP-tagged) (Arabidopsis thaliana)
Assay: affinity purification with mass spectrometry; GFP-trap immuno-isolation from 2 g of 10-day-old pS2Lb::S2Lb-GFP seedlings in modified RIPA buffer, wild-type Col-0 as negative control, four biological replicates; LC-MS/MS

binding: binds
B1: CDKC;1 (enzyme, UniProt Q9LFT8 1-505)
chain: MAMASFGQLNLEEPPPIWGSRSVDCFEKLEQIGEGTYGQVYMAKEIKTGEIVALKKIRMDNEREGFPITAIREIKILKKLHHENVIQLKEIVTSPGRDRDDQGKPDNNKYKGGIYMVFEYMDHDLTGLADRPGLRFTVPQIKCYMKQLLTGLHYCHVNQVLHRDIKGSNLLIDNEGNLKLADFGLARSYSHDHTGNLTNRVITLWYRPPELLLGATKYGPAIDMWSVGCIFAELLHAKPILPGKNEQEQLNKIFELCGSPDEKLWPGVSKMPWFNNFKPARPLKRRVREFFRHFDRHALELLEKMLVLDPAQRISAKDALDAEYFWTDPLPCDPKSLPTYESSHEFQTKKKRQQQRQNEEAAKRQKLQHPPLQHSRLPPLQHGGQSHAAPHWPAGPNHPTNNAPPQVPAGPSHNFYGKPRGPPGPNRYPPSGNQSGGYNQSRGGYSSGSYPPQGRGAPYVAGPRGPSGGPYGVGPPNYTQGGQYGGSGSSGRGQNQRNQQYGWQQ

From paper PMC6528313
